Holding throughout (conditions): 5 µM; treatment: days 7-14 after plating, readout day 21
The test system of experiment [1] is hPSC-derived cortical neurons (WA09). As to the kind of experiment: nucleus area z-score vs screen plate; higher = larger nuclei (more mature).
For experiment [2] the test system is unchanged. Nature of the experiment: total neurite length per nucleus (MAP2) z-score; higher = more neurite growth.
Experiment [3] shares this test system. Nature of the experiment: nucleus roundness z-score vs screen plate; higher = rounder nuclei (more mature).
Experiment [4] has the same test system. Nature of the experiment: KCl-induced FOS+/EGR-1+ double-positive nuclei fraction z-score (KCl minus unstimulated); higher = stronger activity-induced IEG response.

Where a name gives a salt, the structure may show the parent alone. The list shows a part of the results. Most entries show no effect beyond the scatter of the controls. Where a SMILES comes first, the peptide text is derived from it. Bridges are numbered along the chain shown (N, C = ends). [ ]: non-standard residue; d: D form. The star is where a group is joined. Ileψ(thiazoline)Cys = CC[C@H](C)[C@H](N)C1=N[C@H](C(=O)*)CS1; dOrn = NCCC[C@@H](N)C(=O)O

In experiment [1], `CCN(CC)CCCCNc1ncc2cc(-c3cc(OC)cc(OC)c3)c(NC(=O)NC(C)(C)C)nc2n1` registered a nucleus area z-score of -1.41. The “total neurite length per nucleus (z-score)” value in experiment [2] came out at 0.615. In experiment [3], this molecule yielded a nucleus roundness z-score of 0.157. The “KCl-induced FOS+/EGR-1+ double-positive nuclei fraction z-score” value in experiment [4] is -0.73.
On to `Cc1cnc(C(=O)O)c[n+]1[O-]` [Acipimox], for which the nucleus area z-score in experiment [1] was -0.698. Also, the “total neurite length per nucleus (z-score)” value in experiment [2] is 0.0995. Further, the nucleus roundness z-score in experiment [3] was found to be 0.389. Further, the “KCl-induced FOS+/EGR-1+ double-positive nuclei fraction z-score” value in experiment [4] is -0.258.
In the case of `CN1CCN(c2ccc(-c3ccncc3-c3cc(F)c(O)c(F)c3)cc2)CC1`, in experiment [1], the nucleus area z-score is -1.04. Also, the “total neurite length per nucleus (z-score)” value in experiment [2] was -1.04. In addition, in experiment [3], the nucleus roundness z-score is -0.777. For the same molecule, the “KCl-induced FOS+/EGR-1+ double-positive nuclei fraction z-score” value in experiment [4] is -0.189.
As for `CN1CCN2c3ncccc3Cc3ccccc3C2C1` (configuration not stated) [Mirtazapine], the nucleus area z-score in experiment [1] turned out to be 0.00172. Further, the “total neurite length per nucleus (z-score)” value in experiment [2] was 0.551. In experiment [3], this molecule had a nucleus roundness z-score of 1.78. Also, the “KCl-induced FOS+/EGR-1+ double-positive nuclei fraction z-score” value in experiment [4] stood at 1.87.
In the case of `CC[C@H](CO)Nc1nc(NCc2ccccc2)c2ncn(C(C)C)c2n1` [Roscovitine (Seliciclib_CYC202)], in experiment [1], the nucleus area z-score was -0.543. In addition, the “total neurite length per nucleus (z-score)” value in experiment [2] turned out to be 0.576. The same molecule yielded a nucleus roundness z-score in experiment [3] of 0.366. Also, the “KCl-induced FOS+/EGR-1+ double-positive nuclei fraction z-score” value in experiment [4] stood at 0.233.
The matching figures for `O=C(O)COCCN1CCN(C(c2ccccc2)c2ccc(Cl)cc2)CC1` (configuration not stated) [Cetirizine DiHCl]: 0.22, 0.911, 0.218 and -0.248.
`COc1nccc(-c2c(-c3ccc(F)cc3)ncn2C2CCC(O)CC2)n1` (configuration not stated) registered a nucleus area z-score in experiment [1] of 1.88. In addition, the “total neurite length per nucleus (z-score)” value in experiment [2] is 2.65. The nucleus roundness z-score in experiment [3] turned out to be 1.11. Besides, the “KCl-induced FOS+/EGR-1+ double-positive nuclei fraction z-score” value in experiment [4] was found to be 4.94.
`CCOC(=O)C1=C[C@]2(CC)CCCN3CCc4c(n1c1ccccc41)[C@@H]32` [Vinpocetine]: in experiment [1], the nucleus area z-score worked out at 1.65. Further, the “total neurite length per nucleus (z-score)” value in experiment [2] worked out at 0.55. In experiment [3], the nucleus roundness z-score turned out to be 0.363. The “KCl-induced FOS+/EGR-1+ double-positive nuclei fraction z-score” value in experiment [4] was found to be 1.23.
For the molecule `Cn1cc(-c2ccc3c(c2)CCN3C(=O)Cc2cccc(C(F)(F)F)c2)c2c(N)ncnc21`, the nucleus area z-score in experiment [1] is 2.83. Also, the “total neurite length per nucleus (z-score)” value in experiment [2] worked out at 1.04. In experiment [3], this molecule displayed a nucleus roundness z-score of -1.31. Besides, the “KCl-induced FOS+/EGR-1+ double-positive nuclei fraction z-score” value in experiment [4] was 0.525.
The matching figures for `CC(=O)O/N=C1/C(c2c(O)[nH]c3cc(Br)ccc23)=Nc2ccccc21` [BIO-acetoxime]: -0.783, -1.44, -1.3 and -0.41.
`CNS(=O)(=O)Cc1ccc2[nH]cc(CCN(C)C)c2c1` [Sumatriptan Succinate] had a nucleus area z-score in experiment [1] of 0.75. Further, the “total neurite length per nucleus (z-score)” value in experiment [2] was found to be 0.184. In experiment [3], the nucleus roundness z-score amounted to 0.0581. The “KCl-induced FOS+/EGR-1+ double-positive nuclei fraction z-score” value in experiment [4] is 0.178.
The matching figures for `Cc1ccc(NC(=O)C2(c3ccc4c(c3)OC(F)(F)O4)CC2)nc1-c1cccc(C(=O)O)c1` [VX-809 (Lumacaftor)]: 1, -1.03, 0.00757 and 0.00074.
The molecule `CC(=O)[C@]1(O)Cc2c(O)c3c(c(O)c2[C@@H](O[C@H]2C[C@H](N)[C@H](O)[C@H](C)O2)C1)C(=O)c1ccccc1C3=O` [Idarubicin HCl] had a nucleus area z-score in experiment [1] of -16.1. In addition, in experiment [2], the “total neurite length per nucleus (z-score)” value was -6.16. In addition, the nucleus roundness z-score in experiment [3] is -0.751. Besides, the “KCl-induced FOS+/EGR-1+ double-positive nuclei fraction z-score” value in experiment [4] is -0.668.
The matching figures for `CCOc1cc2ncc(C#N)c(Nc3ccc(F)c(Cl)c3)c2cc1NC(=O)/C=C/CN(C)C` [Pelitinib (EKB-569)]: -7.89, -3.22, 2.17 and -2.08.
Turning to `CC[C@H](C)[C@H](N)C1=N[C@H](C(=O)N[C@@H](CC(C)C)C(=O)N[C@H](CCC(=O)O)C(=O)N[C@H](C(=O)N[C@H]2CCCCNC(=O)[C@H](CC(N)=O)NC(=O)[C@@H](CC(=O)O)NC(=O)[C@H](Cc3cnc[nH]3)NC(=O)[C@@H](Cc3ccccc3)NC(=O)[C@H]([C@@H](C)CC)NC(=O)[C@@H](CCCN)NC2=O)[C@@H](C)CC)CS1` [Bacitracin] ({Ileψ(thiazoline)Cys}-L[dE]IK[dOrn]I[dF]H[dD]N; lactam 4-C), the nucleus area z-score in experiment [1] is 0.169. Moreover, in experiment [2], the “total neurite length per nucleus (z-score)” value was -0.0117. In experiment [3], this molecule yielded a nucleus roundness z-score of -0.499. Moreover, the “KCl-induced FOS+/EGR-1+ double-positive nuclei fraction z-score” value in experiment [4] is 0.0366.
The matching figures for `COc1cc(N2CCC(N)CC2)ccc1Nc1ncc(Cl)c(-c2c[nH]c3ccccc23)n1`: -7.71, -0.539, -6.61 and -0.494.
The matching figures for `O=C1CN(/N=C/c2ccc(-c3ccc([N+](=O)[O-])cc3)o2)C(=O)N1` [Dantrolene sodium hemiheptahydrate]: 0.449, -0.128, -0.0598 and -0.981.
As to `O=C(/C=C/c1ccc(O)cc1)c1ccc(O)cc1O` [Isoliquiritigenin], the nucleus area z-score in experiment [1] is 1.22. Further, in experiment [2], the “total neurite length per nucleus (z-score)” value was -0.638. The nucleus roundness z-score in experiment [3] stood at 0.574. The “KCl-induced FOS+/EGR-1+ double-positive nuclei fraction z-score” value in experiment [4] came to 0.17.
The matching figures for `COc1cc2ncnc(Nc3ccc(Cl)cc3F)c2cc1OC`: 0.168, 0.268, 0.394 and -0.517.
For `CC(C)(O)CNc1ncc(-c2ccnc(Nc3ccnc(Cl)c3)n2)c(CC2CC2)n1`, the nucleus area z-score in experiment [1] was -5.96. For the same molecule, the “total neurite length per nucleus (z-score)” value in experiment [2] was -2.42. Besides, in experiment [3], the nucleus roundness z-score was -6.69. Also, the “KCl-induced FOS+/EGR-1+ double-positive nuclei fraction z-score” value in experiment [4] is -1.01.
`CN1CCC(OC(c2ccccc2)c2ccccc2)CC1` [Diphenylpyraline HCl] returned a nucleus area z-score in experiment [1] of -0.722. Also, in experiment [2], the “total neurite length per nucleus (z-score)” value was determined as 0.359. This molecule showed a nucleus roundness z-score in experiment [3] of 0.136. In addition, the “KCl-induced FOS+/EGR-1+ double-positive nuclei fraction z-score” value in experiment [4] came out at 1.05.
As for `Oc1c(Cl)cc(Cl)c(Cl)c1Cc1c(O)c(Cl)cc(Cl)c1Cl` [Hexachlorophene], the nucleus area z-score in experiment [1] was -0.172. Moreover, the “total neurite length per nucleus (z-score)” value in experiment [2] is 4.28. Moreover, the nucleus roundness z-score in experiment [3] was -1.32. The “KCl-induced FOS+/EGR-1+ double-positive nuclei fraction z-score” value in experiment [4] was 0.255.
The molecule `CCNC(=O)C#Cc1ccc2c(C(=Nc3ccc(CN(C)C)cc3)c3ccccc3)c(O)[nH]c2c1` had a nucleus area z-score in experiment [1] of -13.7. The “total neurite length per nucleus (z-score)” value in experiment [2] is -4.73. This molecule had a nucleus roundness z-score in experiment [3] of -2.96. Besides, the “KCl-induced FOS+/EGR-1+ double-positive nuclei fraction z-score” value in experiment [4] is -0.924.
The matching figures for `O=c1cc(-c2cccc3c2Sc2ccccc2S3)oc(N2CCOCC2)c1`: 0.567, 0.472, 0.741 and 1.38.
`Nc1ccc(S(N)(=O)=O)cc1` [Sulfanilamide]: in experiment [1], the nucleus area z-score stood at 0.264. For the same molecule, the “total neurite length per nucleus (z-score)” value in experiment [2] was 0.228. Moreover, in experiment [3], the nucleus roundness z-score was -0.000484. Besides, in experiment [4], the “KCl-induced FOS+/EGR-1+ double-positive nuclei fraction z-score” value was -0.475.
For `O=C(O)Cn1nnc(-c2cc(N3CCC(Oc4cc(F)ccc4Br)CC3)no2)n1`, the nucleus area z-score in experiment [1] is -0.122. Besides, in experiment [2], the “total neurite length per nucleus (z-score)” value is -0.116. The nucleus roundness z-score in experiment [3] amounted to 0.48. In addition, the “KCl-induced FOS+/EGR-1+ double-positive nuclei fraction z-score” value in experiment [4] amounted to 0.141.
`CCOC(=O)C1=C[C@@H](OC(CC)CC)[C@H](NC(C)=O)[C@@H](N)C1` [Oseltamivir Phosphate] returned a nucleus area z-score in experiment [1] of 0.802. Further, the “total neurite length per nucleus (z-score)” value in experiment [2] turned out to be 0.428. Moreover, in experiment [3], the nucleus roundness z-score was -0.0957. In addition, the “KCl-induced FOS+/EGR-1+ double-positive nuclei fraction z-score” value in experiment [4] came out at 0.884.
The matching figures for `Cc1ccc(C(=O)Cn2c3c(sc2=N)CCCC3)cc1` [Pifithrin-_ (PFT_)]: 0.731, -0.703, -0.11 and 0.23.
